# Measured values: article PMC8480849
# These are yes or no findings as the source states them, for the method shown. Binding seen in cells or lysates may run through a third protein. Some entries that bind do so weakly or less than the wild type.
# How the values were obtained:
# Experiment in all cases: co-IP; fresh half brains of 3-month-old wild-type male mice lysed in RIPA lysis buffer; 1 ml extract with 2 ug antibody at 4°C for 1 h, protein G agarose beads 30 min, three washes with bead buffer, Western blot; GAPDH as negative control
# [1] = target: Dual-specificity Tyrosine-(Y)-phosphorylation-Regulated Kinase 1A (DYRK1A) (mouse (endogenous in mouse brain)) (UniProt Q61214)
# [2] = target: GLUN2B (NR2B), subunit of the glutamatergic postsynaptic NMDA receptor (mouse (endogenous in mouse brain)) (UniProt Q01097)
# [3] = target: T1, SYNGAP (mouse (endogenous in mouse brain)) (UniProt F6SEU4)
# T1 sequence: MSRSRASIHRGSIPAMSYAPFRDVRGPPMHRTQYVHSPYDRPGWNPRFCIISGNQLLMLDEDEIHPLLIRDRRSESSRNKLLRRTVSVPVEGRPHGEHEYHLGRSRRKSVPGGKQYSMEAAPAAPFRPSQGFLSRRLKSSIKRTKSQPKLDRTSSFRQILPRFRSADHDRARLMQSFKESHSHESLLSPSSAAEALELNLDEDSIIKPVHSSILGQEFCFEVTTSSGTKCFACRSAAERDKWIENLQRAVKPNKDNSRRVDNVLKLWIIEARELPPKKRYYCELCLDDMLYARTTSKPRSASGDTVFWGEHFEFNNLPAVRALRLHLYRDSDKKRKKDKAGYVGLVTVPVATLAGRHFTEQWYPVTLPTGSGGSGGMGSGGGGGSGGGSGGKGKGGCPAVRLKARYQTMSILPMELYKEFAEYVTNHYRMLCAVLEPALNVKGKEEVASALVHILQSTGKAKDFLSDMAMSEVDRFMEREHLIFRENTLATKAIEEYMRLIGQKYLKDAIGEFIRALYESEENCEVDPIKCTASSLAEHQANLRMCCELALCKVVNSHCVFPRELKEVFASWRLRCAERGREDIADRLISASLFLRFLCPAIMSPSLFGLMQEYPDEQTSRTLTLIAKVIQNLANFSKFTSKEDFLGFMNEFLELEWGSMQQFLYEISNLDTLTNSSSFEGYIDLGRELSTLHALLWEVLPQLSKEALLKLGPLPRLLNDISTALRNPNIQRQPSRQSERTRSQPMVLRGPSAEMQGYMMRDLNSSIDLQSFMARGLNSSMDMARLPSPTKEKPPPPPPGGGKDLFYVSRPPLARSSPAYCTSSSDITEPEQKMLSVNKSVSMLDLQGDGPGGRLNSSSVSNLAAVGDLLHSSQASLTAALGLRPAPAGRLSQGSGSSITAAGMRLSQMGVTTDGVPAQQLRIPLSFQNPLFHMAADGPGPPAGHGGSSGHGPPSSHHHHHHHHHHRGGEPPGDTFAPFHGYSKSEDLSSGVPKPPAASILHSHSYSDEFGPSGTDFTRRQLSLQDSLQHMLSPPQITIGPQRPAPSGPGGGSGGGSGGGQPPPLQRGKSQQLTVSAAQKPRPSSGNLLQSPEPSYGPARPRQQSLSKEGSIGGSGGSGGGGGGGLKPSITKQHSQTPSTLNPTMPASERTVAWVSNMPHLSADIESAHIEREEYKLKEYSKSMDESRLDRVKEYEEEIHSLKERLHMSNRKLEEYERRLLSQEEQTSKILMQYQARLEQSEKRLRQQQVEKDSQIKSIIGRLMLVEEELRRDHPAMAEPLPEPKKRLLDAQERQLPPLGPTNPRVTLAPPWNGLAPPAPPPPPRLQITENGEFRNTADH
binding [1],binding [2],binding [3],Substance
binds,,,"GLUN2B (NR2B), subunit of the glutamatergic postsynaptic NMDA receptor (from UniProt Q01097 27-1482)"
,binds,binds,Dual-specificity Tyrosine-(Y)-phosphorylation-Regulated Kinase 1A (DYRK1A) (from UniProt Q61214 1-763)
binds,,,"CAMK2A, a subunit of the calcium/calmodulin-dependent protein kinase II (CAMK2) (from UniProt P11798 1-478)"
